No constants are given. Whether binding was seen depends on the method and setting. In cells and extracts the contact can be indirect. These calls come from enrichment with a bait or labelling near it, and not all partners need be listed. For some of these results: A no says only that the protein was not detected with the bait. Tags and fused reporters may be left off the sequences shown.

Experiment in all cases: affinity purification with mass spectrometry
Assay [1] deals with T1, GSRhino-TAP-tagged ICU11 (INCURVATA11) (Arabidopsis thaliana) (UniProt Q3ED68).
T1 sequence: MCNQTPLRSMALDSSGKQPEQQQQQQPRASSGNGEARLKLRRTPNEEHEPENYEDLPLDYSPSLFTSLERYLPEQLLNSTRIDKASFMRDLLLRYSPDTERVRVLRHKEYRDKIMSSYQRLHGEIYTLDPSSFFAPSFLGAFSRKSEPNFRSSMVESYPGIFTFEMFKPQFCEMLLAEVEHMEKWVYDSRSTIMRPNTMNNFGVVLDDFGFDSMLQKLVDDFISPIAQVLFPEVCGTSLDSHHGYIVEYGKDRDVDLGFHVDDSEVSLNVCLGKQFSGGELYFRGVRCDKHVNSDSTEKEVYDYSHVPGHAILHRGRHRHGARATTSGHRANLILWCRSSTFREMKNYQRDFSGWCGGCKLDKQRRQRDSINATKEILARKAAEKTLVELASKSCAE

Assay [2] deals with T2, GSRhino-TAP-tagged CP2 (CUPULIFORMIS2) (Arabidopsis thaliana) (UniProt P0DO23).
T2 sequence: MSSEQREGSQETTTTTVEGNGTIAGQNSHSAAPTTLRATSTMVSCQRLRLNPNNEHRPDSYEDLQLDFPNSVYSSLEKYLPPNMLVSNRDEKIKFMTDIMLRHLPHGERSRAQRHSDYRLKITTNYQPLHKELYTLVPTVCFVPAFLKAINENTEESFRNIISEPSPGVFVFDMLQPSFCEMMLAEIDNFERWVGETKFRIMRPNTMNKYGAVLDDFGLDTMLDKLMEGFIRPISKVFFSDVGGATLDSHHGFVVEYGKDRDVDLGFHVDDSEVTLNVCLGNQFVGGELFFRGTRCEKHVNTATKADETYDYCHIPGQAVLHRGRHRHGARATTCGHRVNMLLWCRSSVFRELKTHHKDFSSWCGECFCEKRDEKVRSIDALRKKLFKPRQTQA

The target in assay [3] is T3, GSRhino-TAP-tagged ICU11 (INCURVATA11) (Arabidopsis thaliana), Q3ED68.
T3 chain: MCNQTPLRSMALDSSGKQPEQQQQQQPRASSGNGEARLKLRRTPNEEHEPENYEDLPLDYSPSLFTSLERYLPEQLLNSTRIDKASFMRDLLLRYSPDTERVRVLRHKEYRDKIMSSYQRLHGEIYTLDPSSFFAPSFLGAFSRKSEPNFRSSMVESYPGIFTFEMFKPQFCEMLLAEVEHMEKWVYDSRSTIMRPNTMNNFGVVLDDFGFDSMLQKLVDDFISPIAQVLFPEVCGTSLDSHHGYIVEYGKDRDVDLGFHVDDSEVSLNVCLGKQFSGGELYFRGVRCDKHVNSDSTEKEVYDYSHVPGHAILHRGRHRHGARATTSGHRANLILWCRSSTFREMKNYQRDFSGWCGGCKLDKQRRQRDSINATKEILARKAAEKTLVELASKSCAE
The settings on record: remark: other sources report otherwise.

B1: NAC052 (protein, UniProt Q9SQY0 1-451)
chain: MGRESVAVVTAPPSATAPGTASVATSLAPGFRFHPTDEELVSYYLKRKVLGQPVRFDAIGEVDIYKHEPWDLAVFSRLKTRDQEWYFYSALDKKYGNGARMNRATNRGYWKATGKDREIRRDILLLGMKKTLVFHSGRAPDGLRTNWVMHEYRLVEYETEKNGNLVQDAYVLCRVFHKNNIGPPSGNRYAPFMEEEWADDEGALIPGIDVKLRLEPPPVANGNDQMDQEIQSASKSLININEPPRETAPLDIESDQQNHHENDLKPEEHNNNNNYDENEETLKREQMEEEERPPRPVCVLNKEAPLPLLQYKRRRQSESNNNSSRNTQDHCSSTTTTVDNTTTLISSSAAATNTAISALLEFSLMGISDKKEKPQQPLRPHKEPLPPQTPLASPEEKVNDLQKEIHQMSVERETFKLEMMSAEAMISILQSRIDALRQENEELKKNNANGQ
Take B1: the binding result in assay [1] and in assay [2] was “binds” each time.

B2: COP9 SIGNALOSOME SUBUNIT 1 (CSN1) (protein, UniProt P45432 1-441)
chain: MERDEEASGPMMEMCTNGGEETSNRRPIISGEPLDIEAYAALYKGRTKIMRLLFIANHCGGNHALQFDALRMAYDEIKKGENTQLFREVVNKIGNRLGEKYGMDLAWCEAVDRRAEQKKVKLENELSSYRTNLIKESIRMGYNDFGDFYYACGMLGDAFKNYIRTRDYCTTTKHIIHMCMNAILVSIEMGQFTHVTSYVNKAEQNPETLEPMVNAKLRCASGLAHLELKKYKLAARKFLDVNPELGNSYNEVIAPQDIATYGGLCALASFDRSELKQKVIDNINFRNFLELVPDVRELINDFYSSRYASCLEYLASLKSNLLLDIHLHDHVDTLYDQIRKKALIQYTLPFVSVDLSRMADAFKTSVSGLEKELEALITDNQIQARIDSHNKILYARHADQRNATFQKVLQMGNEFDRDVRAMLLRANLLKHEYHARSARKL
With B2, the binding result in assay [1] and in assay [2] was “binds” each time.

B3: NAC DOMAIN CONTAINING PROTEIN 50 (NAC050) (protein, UniProt Q9SQX9 1-447)
chain: MGRESLAVVSSPPSATAPSTAVSATSLAPGFRFHPTDEELVSYYLKRKVLGKPVRFDAIGEVDIYKHEPWDLAVFSKLKTRDQEWYFFSALDKKYGNGARMNRATNKGYWKATGKDREIRRDIQLLGMKKTLVFHSGRAPDGLRTNWVMHEYRLVEYETETNGSLLQDAYVLCRVFHKNNIGPPSGNRYAPFMEEEWADGGGALIPGIDVRVRVEALPQANGNNQMDQEMHSASKDLININELPRDATPMDIEPNQQNHHESAFKPQESNNHSGYEEDEDTLKREHAEEDERPPSLCILNKEAPLPLLQYKRRRQNESNNNSSRNTQDHCSSTITTVDNTTTLISSSAAAATNTAISALLEFSLMGISDKKENQQKEETSPPSPIASPEEKVNDLQKEVHQMSVERETFKLEMMSAEAMISILQSRIDALRQENEELKKKNASGQAS
As to B3, the binding result in assay [1] and in assay [2] was “binds” in each case.

B4: INCURVATA11 (ICU11), endogenous (protein, UniProt Q3ED68 1-397)
chain: MCNQTPLRSMALDSSGKQPEQQQQQQPRASSGNGEARLKLRRTPNEEHEPENYEDLPLDYSPSLFTSLERYLPEQLLNSTRIDKASFMRDLLLRYSPDTERVRVLRHKEYRDKIMSSYQRLHGEIYTLDPSSFFAPSFLGAFSRKSEPNFRSSMVESYPGIFTFEMFKPQFCEMLLAEVEHMEKWVYDSRSTIMRPNTMNNFGVVLDDFGFDSMLQKLVDDFISPIAQVLFPEVCGTSLDSHHGYIVEYGKDRDVDLGFHVDDSEVSLNVCLGKQFSGGELYFRGVRCDKHVNSDSTEKEVYDYSHVPGHAILHRGRHRHGARATTSGHRANLILWCRSSTFREMKNYQRDFSGWCGGCKLDKQRRQRDSINATKEILARKAAEKTLVELASKSCAE
For the molecule B4, the binding result in assay [2] is given as “no binding”.

B5: JMJ14, Q8GUI6 1-954 (protein)
chain: MDQLASLAESVAMEEDSEKQSIKGESSLEPDSTPSSPKITARWNPSEACRPLVDDAPIFYPTNEDFDDPLGYIEKLRSKAESYGICRIVPPVAWRPPCPLKEKKIWENSKFPTRIQFIDLLQNREPIKKSTKTKKRKRRRISKIGYTRRKRDSGCDTASSGSSDSEGKFGFQTGPDFTLEEFQKYDEYFKECYFQSEDHPGSKASENKKFKPKVKDLEGEYWRIVEQATDEVEVYYGADLETKKFGSGFPKYKPGYPISEADQYSQCGWNLNNLSRLPGSVLAFESCDISGVIVPWLYVGMCFSTFCWHVEDHHLYSMNYLHTGDPKVWYGIPGNHAESFENVMKKRLPDLFEEQPDLLHQLVTQLSPRILKEEGVPVYRAVQRSGEFILTFPKAYHSGFNCGFNCAEAVNVAPVDWLVHGQNAVEGYSKQRRKSSLSHDKLLLGAAMEATYCLWELSLSKKKTPVIARWKRVCSEDGLLTKAVKKRVQMEEERLNHLQDGFSLRKMEGDFDNKRERECFLCFYDLHMSASSCKCSPNRFACLIHAKDLCSCESKDRYILIRHTLDELWALVRALEGDLDAIDLWASKCRDQYPSQHPRAREYAYLKSAPCIKSRGSSKVQQREQNNLQLVSERLQSDLTSNKEVQLKQDGDSDVNRHGHESERNHVHGITDKSAVTDVKLGVGGKFDEKKISVESQNPHSVSDVGCSELAKKVDGCLGGKDQNAATNRLSLSVELLSSGSLVVKKLWCSKQAIYPKGFKSRVKFLSVLDPTNLTNYISEVLDAGLLGPLFRVSVEDYPTENFSNVSAEKCWQMVTQRLKLEIIKKCDQPVSSLTSLQPLESINGLEMFGFLSPHVIKVVEALDPKHQLEEYWNQKAVKLFGAEPIKEGEKDDTEKGGASDPSLDRDTRLLRGLLKKATPEELVMMHGLLCGETRNTELKEELSTLVDKMEISP
As for B5, the binding result in assay [3] is on record as “no binding”.

B6: TRB2, endogenous (protein, UniProt Q9FJW5 1-299)
chain: MGAPKQKWTPEEEAALKAGVLKHGTGKWRTILSDTEFSLILKSRSNVDLKDKWRNISVTALWGSRKKAKLALKRTPPGTKQDDNNTALTIVALTNDDERAKPTSPGGSGGGSPRTCASKRSITSLDKIIFEAITNLRELRGSDRTSIFLYIEENFKTPPNMKRHVAVRLKHLSSNGTLVKIKHKYRFSSNFIPAGARQKAPQLFLEGNNKKDPTKPEENGANSLTKFRVDGELYMIKGMTAQEAAEAAARAVAEAEFAITEAEQAAKEAERAEAEAEAAQIFAKAAMKALKFRIRNHPW
Regarding B6, the binding result is “binds” in assay [1] and “no binding” in assay [2].

These data come from paper doi:10.1101/2024.03.15.585069.
